In this test the target is T1, SNX5-FLAG S226E, Q9Y5X3.
T1 chain: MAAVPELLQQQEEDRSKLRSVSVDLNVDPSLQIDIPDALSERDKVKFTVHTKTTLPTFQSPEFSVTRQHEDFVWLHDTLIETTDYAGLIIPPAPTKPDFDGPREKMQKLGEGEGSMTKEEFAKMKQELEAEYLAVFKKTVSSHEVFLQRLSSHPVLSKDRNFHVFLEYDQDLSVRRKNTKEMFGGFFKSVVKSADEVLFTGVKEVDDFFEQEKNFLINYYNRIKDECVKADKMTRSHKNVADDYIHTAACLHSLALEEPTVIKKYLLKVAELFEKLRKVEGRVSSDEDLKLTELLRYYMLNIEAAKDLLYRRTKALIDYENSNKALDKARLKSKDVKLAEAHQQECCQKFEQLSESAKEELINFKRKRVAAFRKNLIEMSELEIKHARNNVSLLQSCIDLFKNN
Description: co-IP; FLAG pull-down: lysates of 8505C cells expressing SNX5-3xFLAG (48 h, adenovirus) in 0.5% NP-40, 50 mM Tris pH8.0, 150 mM NaCl, 1 mM Na3VO4, 10 mM NaF; anti-FLAG M2 beads 4 h at 4°C; eluted with FLAG-peptide; blots with anti-FLAG, anti-SNX1, anti-SNX2. The following applies: remark: other sources report otherwise.

These are yes or no findings as the source states them, for the method shown. In cells and extracts the contact can be indirect. Where a sequence is shown, tags or fusion partners need not be part of it.

The values that follow come from PMC6231649.

B1: SNX2 (endogenous in 8505C cells), O60749 1-519 (protein)
chain: MAAEREPPPLGDGKPTDFEDLEDGEDLFTSTVSTLESSPSSPEPASLPAEDISANSNGPKPTEVVLDDDREDLFAEATEEVSLDSPEREPILSSEPSPAVTPVTPTTLIAPRIESKSMSAPVIFDRSREEIEEEANGDIFDIEIGVSDPEKVGDGMNAYMAYRVTTKTSLSMFSKSEFSVKRRFSDFLGLHSKLASKYLHVGYIVPPAPEKSIVGMTKVKVGKEDSSSTEFVEKRRAALERYLQRTVKHPTLLQDPDLRQFLESSELPRAVNTQALSGAGILRMVNKAADAVNKMTIKMNESDAWFEEKQQQFENLDQQLRKLHVSVEALVCHRKELSANTAAFAKSAAMLGNSEDHTALSRALSQLAEVEEKIDQLHQEQAFADFYMFSELLSDYIRLIAAVKGVFDHRMKCWQKWEDAQITLLKKREAEAKMMVANKPDKIQQAKNEIREWEAKVQQGERDFEQISKTIRKEVGRFEKERVKDFKTVIIKYLESLVQTQQQLIKYWEAFLPEAKAIA
On to B1, for which the binding entry is reported as “no binding”.
